In the supplement of paper PMC6078165:
± gives the standard deviation of the averaged measurements. Values are relative to the signal before dosing, not to a vehicle control; the signal also falls without drug.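 Labels refer to human fibroblasts, largely primary: uterine (C12385, HUF), lung (H6013), bone (Hs27A), adrenal (HADF), skin (WS1), plus mammary HMF and breast cancer-associated Hs343T. Cancer lines are basal-like or mesenchymal-like triple-negative breast cancer. The paper counts as hits responses shifting over 3x the replicate standard deviation. The tissue of the other fibroblasts is not given here.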

Tested on: BT20
Test: relative JC-1 red fluorescence (viability) vs pre-drug, coculture with fibroblast (fraction); higher = more viable cancer cells
Details: 1 µM
Experimental: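 JC-1 labelled TNBC cells cocultured 1:1 (1,500 cells each) with CellTrace Violet stained primary or stromal fibroblasts in 384-well plates in FluoroBrite medium, treated with one of 42 anticancer drugs at 0.1, 1, 10 or 100 uM. JC-1 red fluorescence (mitochondrial integrity in cancer cells only) was read by plate reader every 8 h for 72 h. Values are normalised to each well's pre-drug value. The stock of one drug was tenfold lower, so its dose labels may be too high.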

O=C(CCCCCCC(=O)Nc1ccccc1)NO [Vorinostat]
relative JC-1 red fluorescence
Details | 40 h | 48 h | 56 h | 64 h | 72 h
coculture fibroblast: C12385 | – | 0.595 ± 0.097 | 0.573 ± 0.11 | 0.555 ± 0.11 | 0.543 ± 0.12
coculture fibroblast: H6013 | – | 0.7472 ± 0.0024 | 0.746 ± 0.022 | 0.74 ± 0.023 | 0.74 ± 0.024
coculture fibroblast: H6019 | – | 0.562 ± 0.027 | 0.534 ± 0.011 | 0.516 ± 0.016 | 0.506 ± 0.013
coculture fibroblast: H6076 | – | 0.675 ± 0.029 | 0.668 ± 0.015 | 0.666 ± 0.02 | 0.657 ± 0.015
coculture fibroblast: H6231 | – | 0.6199 ± 0.0016 | 0.5892 ± 0.0054 | 0.5591 ± 0.0022 | 0.558 ± 0.013
coculture fibroblast: HADF | – | 0.736 ± 0.08 | 0.716 ± 0.086 | 0.703 ± 0.1 | 0.68 ± 0.11
coculture fibroblast: HCFa | – | 0.786 ± 0.2 | 0.747 ± 0.17 | 0.733 ± 0.18 | 0.704 ± 0.17
coculture fibroblast: HCPF | – | 0.62 ± 0.03 | 0.573 ± 0.023 | 0.565 ± 0.026 | 0.534 ± 0.02
coculture fibroblast: HHSteC | 0.681 ± 0.02 | 0.651 ± 0.028 | 0.631 ± 0.033 | 0.619 ± 0.032 | 0.598 ± 0.029
coculture fibroblast: HMF | 0.627 ± 0.023 | 0.577 ± 0.019 | 0.529 ± 0.018 | 0.5 ± 0.032 | 0.465 ± 0.032
coculture fibroblast: HPFa | 0.7378 ± 0.0024 | 0.7061 ± 0.0044 | 0.6966 ± 0.0016 | 0.6887 ± 0.00065 | 0.662 ± 0.011
coculture fibroblast: HUF | 0.584 ± 0.048 | 0.537 ± 0.056 | 0.514 ± 0.071 | 0.5 ± 0.072 | 0.486 ± 0.078
coculture fibroblast: Hs5 | 0.671 ± 0.01 | 0.622 ± 0.017 | 0.577 ± 0.02 | 0.549 ± 0.021 | 0.521 ± 0.017
coculture fibroblast: Hs27A | 0.88 ± 0.11 | 0.862 ± 0.11 | 0.857 ± 0.12 | 0.84 ± 0.12 | 0.812 ± 0.13
coculture fibroblast: Hs343T | 0.626 ± 0.022 | 0.583 ± 0.02 | 0.549 ± 0.023 | 0.549 ± 0.036 | 0.528 ± 0.033
coculture fibroblast: WS1 | 0.578 ± 0.018 | 0.548 ± 0.03 | 0.513 ± 0.031 | 0.488 ± 0.023 | 0.473 ± 0.02
